Consider 2 sequences from paper PMC6430458.

By UniProt entry, the sequences of proteins in these tests, tags left out. Residues count along the entry.
UniProt Q13308, 31-1070: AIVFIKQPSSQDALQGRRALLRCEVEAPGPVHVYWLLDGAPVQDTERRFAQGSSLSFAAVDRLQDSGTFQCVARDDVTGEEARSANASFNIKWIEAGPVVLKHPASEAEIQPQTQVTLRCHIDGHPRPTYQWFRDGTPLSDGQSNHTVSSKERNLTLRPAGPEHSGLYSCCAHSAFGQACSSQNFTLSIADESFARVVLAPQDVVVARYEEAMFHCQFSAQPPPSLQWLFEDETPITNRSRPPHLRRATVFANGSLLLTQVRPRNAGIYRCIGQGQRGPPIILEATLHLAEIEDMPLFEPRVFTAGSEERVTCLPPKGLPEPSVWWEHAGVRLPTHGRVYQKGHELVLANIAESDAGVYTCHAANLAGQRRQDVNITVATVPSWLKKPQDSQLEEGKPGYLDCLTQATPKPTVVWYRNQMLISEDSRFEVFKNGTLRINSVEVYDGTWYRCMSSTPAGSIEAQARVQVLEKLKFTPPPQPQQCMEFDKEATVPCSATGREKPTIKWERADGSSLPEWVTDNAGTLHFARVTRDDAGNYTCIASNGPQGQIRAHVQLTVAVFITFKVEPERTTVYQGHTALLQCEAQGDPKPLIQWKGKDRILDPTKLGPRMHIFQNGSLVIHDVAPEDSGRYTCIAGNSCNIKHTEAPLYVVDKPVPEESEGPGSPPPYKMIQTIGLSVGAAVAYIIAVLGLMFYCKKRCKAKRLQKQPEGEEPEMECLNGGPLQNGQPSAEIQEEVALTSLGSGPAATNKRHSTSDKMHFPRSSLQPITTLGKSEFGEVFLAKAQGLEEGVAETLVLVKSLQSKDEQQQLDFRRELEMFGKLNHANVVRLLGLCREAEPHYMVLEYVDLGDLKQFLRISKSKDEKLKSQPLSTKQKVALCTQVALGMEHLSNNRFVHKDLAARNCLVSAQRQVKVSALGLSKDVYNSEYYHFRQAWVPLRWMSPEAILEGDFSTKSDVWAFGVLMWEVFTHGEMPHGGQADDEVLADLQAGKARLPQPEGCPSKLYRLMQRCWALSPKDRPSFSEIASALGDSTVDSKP

The target of this series is protein tyrosine kinase 7 (PTK7) on CCRF-CEM cells (human) (UniProt Q13308). Briefly: flow cytometry and confocal microscopy (cell uptake). Conditions: 100 nM, 12 h, indirect, uptake read-out, Live cells in medium, first 1 h without FBS, 100 nM Cy5 nanostructure, PBS washes, temperature not stated, TDN annealed in 10 mM Tris-HCl pH 8.0, 50 mM MgCl2, protein on the cell surface, folded or branched DNA. (A flow cytometer gives signals particle by particle.)

Construct, isoform or probe ends are uncertain for at least one entry. Results from cells or extracts need not show a direct contact. A weaker result is weaker than the reference pair of the same experiment. At least one verdict rests on a figure or table, not on a statement of the authors.

Consider “ATTTATCACCCGCCATAGTAGACGTATCACCAGGCAGTTGAGACGAACATTCCTAAGTCTGAA / ACATGCGAGGGTCCAATACCGACGATTACAGCTTGCTACACGATTCAGACTTAGGAATGTTCG / ACTACTATGGCGGGTGATAAAACGTGTAGCAAGCTGTAATCGACGGGAAGAGCATGCCCATCC / ACGGTATTGGACCCTCGCATGACTCAACTGCCTGGTGATACGAGGATGGGCATGCTCTTCCCG [TDN (DNA tetrahedron without aptamer; S1+S2+S3+S4)]”, for which the binding result (uptake low, as in Ramos cells) is on record as “binds more weakly”.
Take “ATTTATCACCCGCCATAGTAGACGTATCACCAGGCAGTTGAGACGAACATTCCTAAGTCTGAA / ATCTAACTGCTGCGCCGCCGGGAAAATACTGTACGGTTAGATTTTTACATGCGAGGGTCCAATACCGACGATTACAGCTTGCTACACGATTCAGACTTAGGAATGTTCG / ACTACTATGGCGGGTGATAAAACGTGTAGCAAGCTGTAATCGACGGGAAGAGCATGCCCATCC / ACGGTATTGGACCCTCGCATGACTCAACTGCCTGGTGATACGAGGATGGGCATGCTCTTCCCG [s-TDN (sgc8c aptamer-modified DNA tetrahedron; S1+S5+S3+S4)]”: the binding result (up to 4x uptake of PTK7-negative Ramos cells) is recorded as “binds”.
